Measured values as given in paper PMC8803338.
Results are given in words; binding and its absence hold for the method and conditions named. In cells and extracts the contact can be indirect.

Sequences of proteins named here, by UniProt entry; tags and fusion partners are left off. A change or cut given only in a name is not applied to a line headed by its entry.
UniProt Q9QZS3: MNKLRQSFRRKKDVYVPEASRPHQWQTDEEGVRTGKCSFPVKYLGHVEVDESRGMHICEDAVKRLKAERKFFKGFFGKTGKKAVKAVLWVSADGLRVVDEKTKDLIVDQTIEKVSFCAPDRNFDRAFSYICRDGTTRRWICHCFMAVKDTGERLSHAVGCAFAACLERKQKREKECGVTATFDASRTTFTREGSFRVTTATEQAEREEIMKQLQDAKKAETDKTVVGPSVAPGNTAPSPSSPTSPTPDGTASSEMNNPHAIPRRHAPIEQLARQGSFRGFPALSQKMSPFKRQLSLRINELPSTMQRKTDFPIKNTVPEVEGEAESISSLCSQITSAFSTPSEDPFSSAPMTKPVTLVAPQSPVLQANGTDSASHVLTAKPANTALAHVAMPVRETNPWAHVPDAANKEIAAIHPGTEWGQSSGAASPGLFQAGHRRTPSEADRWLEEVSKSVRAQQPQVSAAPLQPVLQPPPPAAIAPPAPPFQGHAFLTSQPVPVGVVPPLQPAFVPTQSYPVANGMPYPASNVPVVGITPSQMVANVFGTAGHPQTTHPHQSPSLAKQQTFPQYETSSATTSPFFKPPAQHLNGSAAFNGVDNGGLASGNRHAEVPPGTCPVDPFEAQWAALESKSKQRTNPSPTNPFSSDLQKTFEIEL
UniProt Q9JI91: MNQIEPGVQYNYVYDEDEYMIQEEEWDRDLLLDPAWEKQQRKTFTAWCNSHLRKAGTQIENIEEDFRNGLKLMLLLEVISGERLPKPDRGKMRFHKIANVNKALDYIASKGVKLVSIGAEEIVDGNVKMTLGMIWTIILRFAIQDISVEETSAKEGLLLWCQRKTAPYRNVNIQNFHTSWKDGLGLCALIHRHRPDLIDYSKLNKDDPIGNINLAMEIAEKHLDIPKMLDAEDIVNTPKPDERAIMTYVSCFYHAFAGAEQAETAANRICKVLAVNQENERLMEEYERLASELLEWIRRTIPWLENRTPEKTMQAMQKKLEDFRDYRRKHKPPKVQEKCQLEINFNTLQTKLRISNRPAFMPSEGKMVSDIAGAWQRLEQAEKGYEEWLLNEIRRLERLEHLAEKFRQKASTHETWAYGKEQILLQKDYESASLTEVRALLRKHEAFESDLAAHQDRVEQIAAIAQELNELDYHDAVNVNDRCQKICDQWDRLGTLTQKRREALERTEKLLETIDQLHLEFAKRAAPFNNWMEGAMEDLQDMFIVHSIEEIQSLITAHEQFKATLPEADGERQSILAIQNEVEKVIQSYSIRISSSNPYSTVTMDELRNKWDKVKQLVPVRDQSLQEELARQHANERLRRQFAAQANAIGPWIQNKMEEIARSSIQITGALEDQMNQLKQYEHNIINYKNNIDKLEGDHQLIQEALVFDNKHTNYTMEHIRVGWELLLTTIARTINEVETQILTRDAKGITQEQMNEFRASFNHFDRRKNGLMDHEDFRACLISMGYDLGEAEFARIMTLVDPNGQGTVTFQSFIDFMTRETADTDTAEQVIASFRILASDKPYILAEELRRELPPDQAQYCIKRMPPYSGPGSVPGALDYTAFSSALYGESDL
UniProt O88990: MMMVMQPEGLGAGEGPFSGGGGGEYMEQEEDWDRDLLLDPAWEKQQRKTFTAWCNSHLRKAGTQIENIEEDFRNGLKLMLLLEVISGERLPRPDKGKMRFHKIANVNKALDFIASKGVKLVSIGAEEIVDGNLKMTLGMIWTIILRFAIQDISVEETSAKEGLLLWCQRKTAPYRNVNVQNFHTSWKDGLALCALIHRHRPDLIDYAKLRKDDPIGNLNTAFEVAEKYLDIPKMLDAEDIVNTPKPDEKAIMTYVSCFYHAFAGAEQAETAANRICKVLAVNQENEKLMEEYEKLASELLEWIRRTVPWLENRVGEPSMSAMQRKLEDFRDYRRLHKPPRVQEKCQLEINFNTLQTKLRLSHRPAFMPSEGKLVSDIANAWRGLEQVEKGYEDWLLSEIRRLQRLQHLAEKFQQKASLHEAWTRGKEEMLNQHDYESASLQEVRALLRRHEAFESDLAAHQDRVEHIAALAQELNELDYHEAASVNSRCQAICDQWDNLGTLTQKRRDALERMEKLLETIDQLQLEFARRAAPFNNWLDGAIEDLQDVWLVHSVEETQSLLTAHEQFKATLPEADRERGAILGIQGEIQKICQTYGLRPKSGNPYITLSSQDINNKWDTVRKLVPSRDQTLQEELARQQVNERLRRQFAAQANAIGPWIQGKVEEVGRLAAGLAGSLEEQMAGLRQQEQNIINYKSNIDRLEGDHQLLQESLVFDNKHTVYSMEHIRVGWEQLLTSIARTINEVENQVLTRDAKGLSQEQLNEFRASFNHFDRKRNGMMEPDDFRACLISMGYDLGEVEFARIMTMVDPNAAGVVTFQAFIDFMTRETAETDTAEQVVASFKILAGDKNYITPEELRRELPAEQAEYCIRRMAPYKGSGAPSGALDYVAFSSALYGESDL

Target: Myc-Numb66 (UniProt Q9QZS3)
Assay: co-IP; AD293 cells cotransfected with Myc-tagged and EGFP-tagged plasmids, harvested 24 hours after transfection; NP-40 lysis buffer, anti-Myc-Tag, Protein A/G beads, Western blot

EGFP-ACTN2 (from UniProt Q9JI91 1-894) was tested, and the binding was “no binding”.

For EGFP-ACTN3 (from UniProt O88990 1-900), the binding was “no binding”.
